From PubChem BioAssay AID485314 (National Center for Advancing Translational Sciences (NCATS), 2010)
In all, about 340,000 compounds went through this assay and about 4,500 (1.3%) were called active. This list was built around the results that the source calls inconclusive (neither active nor inactive); the mix of calls is not that of the screen. Calls follow the shape of the dose curve; as a rule, active = well fitted inhibition curve with a large enough effect; inconclusive = small, poorly fitted or top-dose-only effect, or another doubt; inactive = no such curve, though single readings can be large or run the other way. A potency beside an inconclusive call is a rough fit, not a confirmed value.
% is scaled to controls: 0 for no effect and ±100 for the full control effect; potency is read from the fitted curve at half-maximal effect.

These molecules were tested against DNA polymerase beta (Homo sapiens) (UniProt P06746) (assay: qHTS Assay for Inhibitors of DNA Polymerase Beta). Conditions: Pol beta primer extension/strand displacement, fluorescence kinetic; activity change, negative = inhibition: at 114 µM (top of the series).
Summary of the method: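 Reaction started by 50 nM substrate onto compound-treated Pol beta (10 nM, 15 min preincubation, room temperature); plates read at 0 min and 10 min. Normalized concentration-effect data fitted by four-parameter Hill equation.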
In the case of `COc1ccc(Sc2ccc(/C=C3\C(=O)NN(c4ccccc4)C3=O)o2)cc1`, the Potency is reported as active: 44.7 µM.
For `C=CCn1c(=O)[nH]c2cc(C(=O)N3CC=C(c4ccccc4)CC3)ccc2c1=O`, the Potency was inconclusive: 39.8 µM [inhibitor, partial curve].
`COc1ccc2c(Sc3ccc(C)cc3)c(C(=O)NCC(C)c3ccccc3)[nH]c2c1` (stereo not drawn) was tested, and the Potency was inconclusive: 100 µM [inhibitor, single point].
With `Cn1cc(S(=O)(=O)N2CCCCCC2)cc1C(=O)N1CCN(c2ccccc2F)CC1` the Potency was inconclusive: 100 µM [inhibitor, single point].
In the case of `CCc1ccc(/C=N/NC(=S)NCCc2ccccc2)cc1`, the Potency is reported as “inactive”.
`O=C(Nc1ccccc1-c1nnn(CC(=O)N2CCCc3ccccc32)n1)c1ccco1` was tested, and the Potency was inconclusive: 5.01 µM [inhibitor, single point].
`CCn1nc(C(=O)OCC(=O)c2cc(C)n(Cc3cccs3)c2C)c2ccccc2c1=O` was tested, and the Potency was inconclusive: 22.4 µM [inhibitor, partial curve].
With `COc1cc(/C=C2\SC(=Nc3ccc(O)cc3)NC2=O)cc(OC)c1O` the Potency was “inactive”.
For `CCOC(=O)c1ccc(OC(=O)c2cn(-c3ccc(C)cc3)c(=O)c3ccccc23)cc1`, the Potency was “inactive”.
For `Cc1cccc(OCC(=O)Nc2ccc(S(=O)(=O)Nc3onc(C)c3C)cc2)c1C`, the Potency was inconclusive: 11.2 µM [inhibitor, partial curve, poor fit].
`Cc1ccc(CNC(=O)c2cc3c(=O)oc4ccc(C)cc4c3s2)cc1` was tested, and the Potency was “inactive”.
`Cc1c(C(=O)c2ccc(F)cc2)c2ccccn2c1CCc1ccccn1` was tested, and the Potency was inconclusive: 79.4 µM [inhibitor, single point].
In the case of `CN1CCc2cccc3c2[C@H]1Cc1ccc(O)c(O)c1-3`, the Potency is reported as “inactive”.
`CCCNC(=O)Cn1nc(-c2ccc(C)c(C)c2)c2cnc3ccc(OC)cc3c21` was tested, and the Potency was “inactive”.
`CN(c1ccccc1)S(=O)(=O)c1cccc(C(=O)NCCc2ccc(O)c(O)c2)c1` was tested, and the Potency was inconclusive: 15.8 µM [inhibitor, full curve].
For `COc1ccc2oc(=O)c(C(=O)NCCc3c(C)[nH]c4ccc(C)cc34)cc2c1`, the Potency was inconclusive: 89.1 µM [inhibitor, single point].
With `COc1ccc(C(=O)N/N=C\c2ccoc2)cc1` the Potency was inconclusive: 89.1 µM [inhibitor, single point].
For `Cc1cc(C)nc(NN=C2CCCC2)n1`, the Potency was inconclusive: 70.8 µM [inhibitor, partial curve].
In the case of `COc1ccccc1C(=O)NCC(=O)OCC(=O)c1ccc2c(c1)-c1ccccc1C2`, the Potency is reported as inconclusive: 89.1 µM [inhibitor, single point].
`COc1cc(/C=C(\C#N)c2nc3ccccc3s2)cc([N+](=O)[O-])c1O` was tested, and the Potency was active: 39.8 µM.
For `Cc1ccc(OCC(=O)NNC(=O)Cn2nnc(-c3ccccc3)n2)cc1`, the Potency was inconclusive: 22.4 µM [inhibitor, full curve].
For `O=C(CSc1nnc(-c2cccs2)n1CC1CCCO1)c1cc2ccccc2o1` (stereo not drawn), the Potency was inconclusive: 20 µM [inhibitor, full curve, poor fit].
With `COc1ccc(C2(c3ccc(OC)cc3)NC(=O)N(CC(=O)Nc3ccc(OC(F)F)cc3)C2=O)cc1` the Potency was inconclusive: 0.447 µM [inhibitor, full curve, poor fit].
In the case of `O=C(/C=C/c1ccco1)N1CCN(c2ncccn2)CC1`, the Potency is reported as inconclusive: 44.7 µM [inhibitor, partial curve, poor fit].
`Cc1ccccc1NCc1ccc(O)c2ncccc12` was tested, and the Potency was inconclusive: 39.8 µM [inhibitor, single point].
`O=C(N/N=C\c1cc2c(cc1Cl)OCO2)c1cccs1` was tested, and the Potency was inconclusive: 0.891 µM [inhibitor, full curve].
For `O=C(N/N=C/c1ccc([N+](=O)[O-])o1)c1cc2ccccc2o1`, the activity change, negative = inhibition was inconclusive: -67.2% [inhibitor].
With `O=C(NCc1ccco1)c1ccccc1F` the Potency was inconclusive: 15.8 µM [inhibitor, full curve].
In the case of `O=C(NCc1cccnc1)C1CC2c3ccccc3C1c1ccccc12` (stereo not drawn), the Potency is reported as inconclusive: 7.08 µM [inhibitor, full curve, poor fit].
`Cc1ccc(S(=O)(=O)Nc2cccc(-c3ccc(N4CCCC4)nn3)c2)c(C)c1` was tested, and the Potency was “inactive”.
In the case of `Cc1ccc(C)c(C(=O)COC(=O)CN2C(=O)C3C4C=CC(C4)C3C2=O)c1` (stereo not drawn), the Potency is reported as inconclusive: 89.1 µM [inhibitor, single point].
`Cc1cc(C)nc(-n2nc(C)c3c2N(Cc2ccccc2C)C(=O)CC3c2ccc(Cl)cc2)n1` (stereo not drawn) was tested, and the Potency was inconclusive: 100 µM [inhibitor, single point].
`CCOc1cc(-c2ccc3c(c2)OCO3)cc(=O)c2c(C)oc(C)c12` was tested, and the Potency was inconclusive: 89.1 µM [inhibitor, single point].
With `O=C(Nc1ccc(Oc2ccccc2)cc1)c1ccc(F)c(S(=O)(=O)N2CCN(c3ccccc3F)CC2)c1` the Potency was “inactive”.
For `O=C1NC(=S)S/C1=C\c1ccc(SCc2ccccc2)o1`, the Potency was active: 14.1 µM.
For `Cc1ccc(OCC(=O)NNC(=S)NCc2ccccc2)cc1`, the Potency was inconclusive: 89.1 µM [inhibitor, single point].
For `Cc1nc2c(c(C)c1CCC(=O)Nc1ccc(F)cc1)c(=O)n(C)c(=O)n2C`, the Potency was “inactive”.
For `O=C(CCn1c(=S)oc2ccccc21)Nc1ccccc1Br`, the Potency was inconclusive: 12.6 µM [inhibitor, partial curve, poor fit].
`COCCn1c(C)cc(O)c(C(c2ccccc2F)N2CCN(c3ccccc3)CC2)c1=O` (stereo not drawn) was tested, and the Potency was inconclusive: 89.1 µM [inhibitor, single point].
For `Cc1ccccc1NC(=O)CN1C(=O)S/C(=C\c2ccc(-c3cccc(C(=O)O)c3C)o2)C1=O`, the Potency was active: 35.5 µM.
For `CCc1cccc(-n2nnc(S(=O)(=O)c3ccc(OC)cc3)c2C)c1`, the Potency was inconclusive: 15.8 µM [inhibitor, partial curve].
In the case of `COc1ccc(NC(=O)Cn2nnc(-c3nc(-c4ccncc4)no3)c2N)cc1OC`, the Potency is reported as active: 79.4 µM.
With `COc1ccc(N2CCN(C(=O)Cc3ccc(S(=O)(=O)N4CCOCC4)s3)CC2)cc1` the Potency was active: 12.6 µM.
With `O=C(N/N=C/C=C/c1ccccc1)NC1CCCCC1` the Potency was inconclusive: 79.4 µM [inhibitor, single point].
`CC(C)C1Nc2ccc(C(=O)O)cc2C2C=CCC21` (stereo not drawn) was tested, and the Potency was active: 12.6 µM.
For `CC(C)CNC(=O)COC(=O)/C=C/c1ccco1`, the Potency was active: 28.2 µM.
With `COc1ccc(-c2nnn(CC(=O)N3CCOCC3)n2)cc1` the Potency was “inactive”.
For `CN1OC(COC(=O)c2ccc(Cl)cc2)CC1c1ccccc1` (stereo not drawn), the Potency was inconclusive: 5.62 µM [inhibitor, full curve].
In the case of `Cc1ccc(S(=O)(=O)c2c(COC(=O)c3ccccc3Cl)c(-c3ccccc3)nn2C)cc1`, the Potency is reported as inconclusive: 22.4 µM [inhibitor, single point].
`COc1ccc(N=C2SC(C(N)=O)CC(=O)N2Cc2ccc3c(c2)OCO3)cc1` (stereo not drawn) was tested, and the Potency was inconclusive: 39.8 µM [inhibitor, partial curve, poor fit].
With `COCCNC(=O)C(c1ccc(C)cc1)N(C(=O)CCC(=O)Nc1ccccn1)C1CCCC1` (stereo not drawn) the Potency was inconclusive: 100 µM [inhibitor, partial curve, poor fit].
In the case of `COc1ccccc1OCCNC(=O)CCNC(=O)c1ccccc1Cl`, the Potency is reported as inconclusive: 14.1 µM [inhibitor, partial curve].
`O=C(Nc1cccc(-c2cn3cccnc3n2)c1)c1ccco1` was tested, and the Potency was “inactive”.
For `CCC(=O)N1CCN(c2ccc(NC(=O)c3ccc([N+](=O)[O-])o3)cc2)CC1`, the Potency was inconclusive: 39.8 µM [inhibitor, full curve, poor fit].
`COc1ccc(-c2cc(C(F)(F)F)nc(SCC(=O)Nc3ccc(O)cc3)n2)cc1OC` was tested, and the Potency was inconclusive: 8.91 µM [inhibitor, full curve, poor fit].
`Cc1ccc(S(=O)(=O)N(C)c2c(C)ccc(S(=O)(=O)NC(C)(C)C)c2C)cc1` was tested, and the Potency was inconclusive: 28.2 µM [inhibitor, single point].
For `CCOc1ccc(NC(=O)Nc2c[nH]c(=O)[nH]c2=O)cc1`, the Potency was inconclusive: 89.1 µM [inhibitor, single point].
With `CCOC(=O)Cc1csc(NC(=O)c2sc3nc4c(C)cc(C)cc4cc3c2N)n1` the Potency was active: 31.6 µM.
For `O=C(Cn1ncc2c3ccccc3n(Cc3cccc(Cl)c3)c2c1=O)NCCC1=CCCCC1`, the Potency was inconclusive: 25.1 µM [inhibitor, full curve].
In the case of `Cc1ccc(N2CC(NC(=O)c3ccccc3Br)CC2=O)cc1` (stereo not drawn), the Potency is reported as “inactive”.
`O=C(Cn1c(SCC(=O)Nc2ccc(F)cc2)nc2ccccc21)NCc1ccc(Cl)cc1` was tested, and the Potency was inconclusive: 89.1 µM [inhibitor, single point].
In the case of `Nc1ncc2c(n1)-c1ccccc1CC2`, the Potency is reported as inconclusive: 39.8 µM [inhibitor, single point].
`CN(CC1CCOCC1)C(=O)CC1C(=O)NCCN1Cc1ccc(-c2ccccc2)cc1` (stereo not drawn) was tested, and the Potency was inconclusive: 89.1 µM [inhibitor, single point].
In the case of `CC(C)C(=O)Nc1ccccc1N1CCN(S(C)(=O)=O)CC1`, the Potency is reported as inconclusive: 89.1 µM [inhibitor, single point].
With `CC(C)(O)CCCC(C)(O)c1ccc(C(=O)O)cc1O` (stereo not drawn) the Potency was active: 39.8 µM.
In the case of `Nc1nnc(SCC(=O)c2ccco2)s1`, the Potency is reported as inconclusive: 22.4 µM [inhibitor, partial curve, poor fit].
For `Cn1cnnc1SCC(=O)Nc1sc2c(c1C(N)=O)CCC2`, the Potency was active: 14.1 µM.
With `O=C(NCc1ccccc1Cl)c1ccc(NC(=O)N2CCSc3ccccc32)cc1` the Potency was “inactive”.
